Experimental findings from publication PMC3778836 are described below.

The chains behind the UniProt entries cited, without tags or fusion partners.
UniProt Q9BXW9: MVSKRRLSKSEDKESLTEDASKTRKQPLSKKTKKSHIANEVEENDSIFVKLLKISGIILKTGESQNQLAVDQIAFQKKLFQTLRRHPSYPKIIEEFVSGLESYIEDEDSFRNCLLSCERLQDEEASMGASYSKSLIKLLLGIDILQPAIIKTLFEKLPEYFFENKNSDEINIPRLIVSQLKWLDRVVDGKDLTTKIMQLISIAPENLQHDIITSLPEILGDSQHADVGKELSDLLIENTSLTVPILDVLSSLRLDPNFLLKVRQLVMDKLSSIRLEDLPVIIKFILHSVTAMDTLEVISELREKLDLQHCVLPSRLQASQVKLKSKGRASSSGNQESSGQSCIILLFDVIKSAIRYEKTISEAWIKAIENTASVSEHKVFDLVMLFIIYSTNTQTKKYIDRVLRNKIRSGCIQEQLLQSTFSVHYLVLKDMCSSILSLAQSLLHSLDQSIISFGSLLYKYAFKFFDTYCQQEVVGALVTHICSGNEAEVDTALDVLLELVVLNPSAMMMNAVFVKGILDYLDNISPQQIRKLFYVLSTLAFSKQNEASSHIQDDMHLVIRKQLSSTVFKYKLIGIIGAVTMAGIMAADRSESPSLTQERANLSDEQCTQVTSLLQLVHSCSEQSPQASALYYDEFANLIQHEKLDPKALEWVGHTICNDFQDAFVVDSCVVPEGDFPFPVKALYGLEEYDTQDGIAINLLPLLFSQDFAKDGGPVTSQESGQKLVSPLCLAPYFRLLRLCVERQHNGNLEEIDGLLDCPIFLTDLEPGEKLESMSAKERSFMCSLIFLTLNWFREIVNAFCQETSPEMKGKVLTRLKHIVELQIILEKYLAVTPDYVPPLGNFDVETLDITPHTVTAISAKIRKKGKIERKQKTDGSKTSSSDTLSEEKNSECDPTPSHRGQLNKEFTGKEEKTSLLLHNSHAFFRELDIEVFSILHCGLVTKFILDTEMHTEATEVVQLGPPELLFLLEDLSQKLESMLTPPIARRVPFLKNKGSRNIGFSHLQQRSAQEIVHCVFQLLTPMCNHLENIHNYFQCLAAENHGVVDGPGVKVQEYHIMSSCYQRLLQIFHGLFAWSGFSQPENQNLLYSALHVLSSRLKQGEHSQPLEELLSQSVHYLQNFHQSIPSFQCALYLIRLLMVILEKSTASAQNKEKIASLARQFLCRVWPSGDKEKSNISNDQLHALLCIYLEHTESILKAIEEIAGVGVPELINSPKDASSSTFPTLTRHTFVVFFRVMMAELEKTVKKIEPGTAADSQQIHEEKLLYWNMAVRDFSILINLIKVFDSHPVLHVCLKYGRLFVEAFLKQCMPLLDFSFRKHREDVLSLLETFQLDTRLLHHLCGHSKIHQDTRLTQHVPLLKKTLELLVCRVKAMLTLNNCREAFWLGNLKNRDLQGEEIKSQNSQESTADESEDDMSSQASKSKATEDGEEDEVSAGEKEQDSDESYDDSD

These are yes or no findings as the source states them, for the method shown. Binding seen in cells or lysates may run through a third protein. Here binding means that the protein was enriched with, or labelled near, the bait; the list need not be complete. No binding means not detected with the bait. Where a sequence is shown, tags or fusion partners need not be part of it.

For experiment [1], the target named is T1, FLAG-HA epitope-tagged HELQ (human) (UniProt Q8TDG4).
T1 sequence: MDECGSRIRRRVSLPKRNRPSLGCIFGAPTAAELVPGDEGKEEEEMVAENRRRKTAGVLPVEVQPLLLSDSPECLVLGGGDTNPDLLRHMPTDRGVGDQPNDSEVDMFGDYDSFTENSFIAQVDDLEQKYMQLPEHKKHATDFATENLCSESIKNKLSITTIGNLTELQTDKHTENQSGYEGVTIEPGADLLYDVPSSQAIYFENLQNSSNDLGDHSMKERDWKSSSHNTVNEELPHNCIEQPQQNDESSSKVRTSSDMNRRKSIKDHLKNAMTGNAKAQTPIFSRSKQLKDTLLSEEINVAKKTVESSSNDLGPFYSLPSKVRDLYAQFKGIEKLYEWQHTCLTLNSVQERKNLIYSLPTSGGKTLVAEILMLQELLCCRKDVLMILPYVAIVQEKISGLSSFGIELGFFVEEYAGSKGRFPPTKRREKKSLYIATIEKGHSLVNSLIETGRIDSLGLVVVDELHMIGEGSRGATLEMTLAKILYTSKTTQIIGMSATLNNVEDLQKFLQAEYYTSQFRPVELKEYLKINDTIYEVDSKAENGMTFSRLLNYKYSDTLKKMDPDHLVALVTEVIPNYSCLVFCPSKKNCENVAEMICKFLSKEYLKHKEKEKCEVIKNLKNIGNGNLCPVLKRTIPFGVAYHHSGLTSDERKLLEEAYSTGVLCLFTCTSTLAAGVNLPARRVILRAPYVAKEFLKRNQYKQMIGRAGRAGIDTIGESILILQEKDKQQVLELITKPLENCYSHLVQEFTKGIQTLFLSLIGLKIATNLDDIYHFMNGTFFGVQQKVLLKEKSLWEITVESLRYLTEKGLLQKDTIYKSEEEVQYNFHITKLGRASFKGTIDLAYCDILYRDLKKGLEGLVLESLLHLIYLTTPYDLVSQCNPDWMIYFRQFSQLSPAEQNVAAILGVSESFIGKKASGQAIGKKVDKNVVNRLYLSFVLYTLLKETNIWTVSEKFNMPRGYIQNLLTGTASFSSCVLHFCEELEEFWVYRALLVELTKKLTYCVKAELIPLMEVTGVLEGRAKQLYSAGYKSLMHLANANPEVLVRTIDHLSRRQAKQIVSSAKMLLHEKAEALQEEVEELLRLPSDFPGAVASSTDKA
Put plainly: affinity purification with mass spectrometry; FLAG-HA-tagged bait stably expressed in HeLa S3; sequential anti-FLAG (M2 agarose, FLAG peptide elution) and anti-HA (12CA5) immunoprecipitation from nuclear extract; washes in 100 mM KCl, 20 mM Tris-HCl pH 8.0, 5 mM MgCl2, 10% glycerol, 0.1% Tween-20; 4-20% gradient gel, gel sections by LC-MS.

The target in experiment [2] is T2, FLAG-HA epitope-tagged XRCC2 (UniProt O43543).
T2 sequence: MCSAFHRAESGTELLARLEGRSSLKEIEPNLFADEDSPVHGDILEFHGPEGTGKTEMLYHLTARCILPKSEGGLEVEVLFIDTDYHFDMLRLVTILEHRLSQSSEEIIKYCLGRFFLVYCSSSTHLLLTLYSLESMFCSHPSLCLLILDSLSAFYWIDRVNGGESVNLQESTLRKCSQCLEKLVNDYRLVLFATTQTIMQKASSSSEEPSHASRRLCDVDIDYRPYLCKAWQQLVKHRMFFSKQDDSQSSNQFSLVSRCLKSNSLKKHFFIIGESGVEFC
The experiment is described as above.

Take FANCD2 (from UniProt Q9BXW9 1-1451): in experiment [1], the binding result is “no binding”.

B1: HELQ (endogenous, HeLa S3) (enzyme, UniProt Q8TDG4 1-1101)
chain: MDECGSRIRRRVSLPKRNRPSLGCIFGAPTAAELVPGDEGKEEEEMVAENRRRKTAGVLPVEVQPLLLSDSPECLVLGGGDTNPDLLRHMPTDRGVGDQPNDSEVDMFGDYDSFTENSFIAQVDDLEQKYMQLPEHKKHATDFATENLCSESIKNKLSITTIGNLTELQTDKHTENQSGYEGVTIEPGADLLYDVPSSQAIYFENLQNSSNDLGDHSMKERDWKSSSHNTVNEELPHNCIEQPQQNDESSSKVRTSSDMNRRKSIKDHLKNAMTGNAKAQTPIFSRSKQLKDTLLSEEINVAKKTVESSSNDLGPFYSLPSKVRDLYAQFKGIEKLYEWQHTCLTLNSVQERKNLIYSLPTSGGKTLVAEILMLQELLCCRKDVLMILPYVAIVQEKISGLSSFGIELGFFVEEYAGSKGRFPPTKRREKKSLYIATIEKGHSLVNSLIETGRIDSLGLVVVDELHMIGEGSRGATLEMTLAKILYTSKTTQIIGMSATLNNVEDLQKFLQAEYYTSQFRPVELKEYLKINDTIYEVDSKAENGMTFSRLLNYKYSDTLKKMDPDHLVALVTEVIPNYSCLVFCPSKKNCENVAEMICKFLSKEYLKHKEKEKCEVIKNLKNIGNGNLCPVLKRTIPFGVAYHHSGLTSDERKLLEEAYSTGVLCLFTCTSTLAAGVNLPARRVILRAPYVAKEFLKRNQYKQMIGRAGRAGIDTIGESILILQEKDKQQVLELITKPLENCYSHLVQEFTKGIQTLFLSLIGLKIATNLDDIYHFMNGTFFGVQQKVLLKEKSLWEITVESLRYLTEKGLLQKDTIYKSEEEVQYNFHITKLGRASFKGTIDLAYCDILYRDLKKGLEGLVLESLLHLIYLTTPYDLVSQCNPDWMIYFRQFSQLSPAEQNVAAILGVSESFIGKKASGQAIGKKVDKNVVNRLYLSFVLYTLLKETNIWTVSEKFNMPRGYIQNLLTGTASFSSCVLHFCEELEEFWVYRALLVELTKKLTYCVKAELIPLMEVTGVLEGRAKQLYSAGYKSLMHLANANPEVLVRTIDHLSRRQAKQIVSSAKMLLHEKAEALQEEVEELLRLPSDFPGAVASSTDKA
Take B1: the binding entry in experiment [2] is “binds”.

B2: RAD51B (protein, UniProt O15315 1-384)
chain: MGSKKLKRVGLSQELCDRLSRHQILTCQDFLCLSPLELMKVTGLSYRGVHELLCMVSRACAPKMQTAYGIKAQRSADFSPAFLSTTLSALDEALHGGVACGSLTEITGPPGCGKTQFCIMMSILATLPTNMGGLEGAVVYIDTESAFSAERLVEIAESRFPRYFNTEEKLLLTSSKVHLYRELTCDEVLQRIESLEEEIISKGIKLVILDSVASVVRKEFDAQLQGNLKERNKFLAREASSLKYLAEEFSIPVILTNQITTHLSGALASQADLVSPADDLSLSEGTSGSSCVIAALGNTWSHSVNTRLILQYLDSERRQILIAKSPLAPFTSFVYTIKEEGLVLQETTFCSVTQAELNWAPEILPPQPPEQLGLQMCHHTQLIF
Consider B2, for which the binding entry in experiment [1] is “binds”.

B3: ATRIP (protein, UniProt Q8WXE1 1-791)
chain: MAGTSAPGSKRRSEPPAPRPGPPPGTGHPPSKRARGFSAAAAPDPDDPFGAHGDFTADDLEELDTLASQALSQCPAAARDVSSDHKVHRLLDGMSKNPSGKNRETVPIKDNFELEVLQAQYKELKEKMKVMEEEVLIKNGEIKILRDSLHQTESVLEEQRRSHFLLEQEKTQALSDKEKEFSKKLQSLQSELQFKDAEMNELRTKLQTSERANKLAAPSVSHVSPRKNPSVVIKPEACSPQFGKTSFPTKESFSANMSLPHPCQTESGYKPLVGREDSKPHSLRGDSIKQEEAQKSFVDSWRQRSNTQGSILINLLLKQPLIPGSSLSLCHLLSSSSESPAGTPLQPPGFGSTLAGMSGLRTTGSYDGSFSLSALREAQNLAFTGLNLVARNECSRDGDPAEGGRRAFPLCQLPGAVHFLPLVQFFIGLHCQALQDLAAAKRSGAPGDSPTHSSCVSSGVETNPEDSVCILEGFSVTALSILQHLVCHSGAVVSLLLSGVGADSAAGEGNRSLVHRLSDGDMTSALRGVADDQGQHPLLKMLLHLLAFSSAATGHLQASVLTQCLKVLVKLAENTSCDFLPRFQCVFQVLPKCLSPETPLPSVLLAVELLSLLADHDQLAPQLCSHSEGCLLLLLYMYITSRPDRVALETQWLQLEQEVVWLLAKLGVQSPLPPVTGSNCQCNVEVVRALTVMLHRQWLTVRRAGGPPRTDQQRRTVRCLRDTVLLLHGLSQKDKLFMMHCVEVLHQFDQVMPGVSMLIRGLPDVTDCEEAALDDLCAAETDVEDPEVECG
As for B3, in experiment [1], the binding entry is on record as “binds”.

B4: XRCC2 (endogenous, HeLa S3) (protein, UniProt O43543 1-280)
chain: MCSAFHRAESGTELLARLEGRSSLKEIEPNLFADEDSPVHGDILEFHGPEGTGKTEMLYHLTARCILPKSEGGLEVEVLFIDTDYHFDMLRLVTILEHRLSQSSEEIIKYCLGRFFLVYCSSSTHLLLTLYSLESMFCSHPSLCLLILDSLSAFYWIDRVNGGESVNLQESTLRKCSQCLEKLVNDYRLVLFATTQTIMQKASSSSEEPSHASRRLCDVDIDYRPYLCKAWQQLVKHRMFFSKQDDSQSSNQFSLVSRCLKSNSLKKHFFIIGESGVEFC
For the molecule B4, the binding result in experiment [1] is given as “binds”.

B5: DNA polymerase POLN (endogenous, HeLa S3) (enzyme, UniProt Q7Z5Q5 1-900)
chain: MENYEALVGFDLCNTPLSSVAQKIMSAMHSGDLVDSKTWGKSTETMEVINKSSVKYSVQLEDRKTQSPEKKDLKSLRSQTSRGSAKLSPQSFSVRLTDQLSADQKQKSISSLTLSSCLIPQYNQEASVLQKKGHKRKHFLMENINNENKGSINLKRKHITYNNLSEKTSKQMALEEDTDDAEGYLNSGNSGALKKHFCDIRHLDDWAKSQLIEMLKQAAALVITVMYTDGSTQLGADQTPVSSVRGIVVLVKRQAEGGHGCPDAPACGPVLEGFVSDDPCIYIQIEHSAIWDQEQEAHQQFARNVLFQTMKCKCPVICFNAKDFVRIVLQFFGNDGSWKHVADFIGLDPRIAAWLIDPSDATPSFEDLVEKYCEKSITVKVNSTYGNSSRNIVNQNVRENLKTLYRLTMDLCSKLKDYGLWQLFRTLELPLIPILAVMESHAIQVNKEEMEKTSALLGARLKELEQEAHFVAGERFLITSNNQLREILFGKLKLHLLSQRNSLPRTGLQKYPSTSEAVLNALRDLHPLPKIILEYRQVHKIKSTFVDGLLACMKKGSISSTWNQTGTVTGRLSAKHPNIQGISKHPIQITTPKNFKGKEDKILTISPRAMFVSSKGHTFLAADFSQIELRILTHLSGDPELLKLFQESERDDVFSTLTSQWKDVPVEQVTHADREQTKKVVYAVVYGAGKERLAACLGVPIQEAAQFLESFLQKYKKIKDFARAAIAQCHQTGCVVSIMGRRRPLPRIHAHDQQLRAQAERQAVNFVVQGSAADLCKLAMIHVFTAVAASHTLTARLVAQIHDELLFEVEDPQIPECAALVRRTMESLEQVQALELQLQVPLKVSLSAGRSWGHLVPLQEAWGPPPGPCRTESPSNSLAAPGSPASTQPPPLHFSPSFCL
In the case of B5, the binding result in experiment [2] and in experiment [1] was “no binding” in each case.

B6: XRCC3 (protein, UniProt O43542 1-346)
chain: MDLDLLDLNPRIIAAIKKAKLKSVKEVLHFSGPDLKRLTNLSSPEVWHLLRTASLHLRGSSILTALQLHQQKERFPTQHQRLSLGCPVLDALLRGGLPLDGITELAGRSSAGKTQLALQLCLAVQFPRQHGGLEAGAVYICTEDAFPHKRLQQLMAQQPRLRTDVPGELLQKLRFGSQIFIEHVADVDTLLECVNKKVPVLLSRGMARLVVIDSVAAPFRCEFDSQASAPRARHLQSLGATLRELSSAFQSPVLCINQVTEAMEEQGAAHGPLGFWDERVSPALGITWANQLLVRLLADRLREEEAALGCPARTLRVLSAPHLPPSSCSYTISAEGVRGTPGTQSH
Take B6: the binding result in experiment [1] was “no binding”.

B7: RAD51C (protein, UniProt O43502 1-376)
chain: MRGKTFRFEMQRDLVSFPLSPAVRVKLVSAGFQTAEELLEVKPSELSKEVGISKAEALETLQIIRRECLTNKPRYAGTSESHKKCTALELLEQEHTQGFIITFCSALDDILGGGVPLMKTTEICGAPGVGKTQLCMQLAVDVQIPECFGGVAGEAVFIDTEGSFMVDRVVDLATACIQHLQLIAEKHKGEEHRKALEDFTLDNILSHIYYFRCRDYTELLAQVYLLPDFLSEHSKVRLVIVDGIAFPFRHDLDDLSLRTRLLNGLAQQMISLANNHRLAVILTNQMTTKIDRNQALLVPALGESWGHAATIRLIFHWDRKQRLATLYKSPSQKECTVLFQIKPQGFRDTVVTSACSLQTEGSLSTRKRSRDPEEEL
With B7, the binding result in experiment [1] is listed as “binds”.
